We go through 3 molecules from PMC5514136.

Assay [1] deals with T1, TRIB2 (UniProt Q92519).
T1 sequence: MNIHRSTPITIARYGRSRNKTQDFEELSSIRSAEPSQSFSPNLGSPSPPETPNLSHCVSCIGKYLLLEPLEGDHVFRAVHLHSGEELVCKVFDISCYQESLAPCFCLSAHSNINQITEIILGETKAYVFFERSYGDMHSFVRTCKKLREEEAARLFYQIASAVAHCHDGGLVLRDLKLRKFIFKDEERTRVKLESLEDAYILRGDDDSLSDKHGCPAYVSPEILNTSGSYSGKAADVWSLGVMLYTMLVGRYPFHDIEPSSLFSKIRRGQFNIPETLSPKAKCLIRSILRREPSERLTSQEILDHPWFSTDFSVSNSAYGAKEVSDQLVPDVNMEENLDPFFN
The experiment in a line: pull-down; TRIB1, TRIB2 and TRIB3 as baits, binding corrected for the amount of bait (Suppl Fig. 6); source of HNF4A not told; only the target purified.

Assay [2] concerns the target TRIB1 fragment spanning AA1–97 (human). The experiment in a line: pull-down; GST fusion on beads; HepG2 nuclear lysates (Suppl Fig. 7); only the target purified.
The target in assay [3] is GST-TRIB1 (human). The experiment in a line: pull-down; GST-TRIB1 on GST agarose beads; HuH-7 or HepG2 lysates in IP buffer; endogenous HNF4A by Western blot; only the target purified. A general note: In western blotting, separated proteins are transferred to a membrane and probed.
The target in assay [4] is GST-TRIB1 (human). The experiment in a line: pull-down; competition: synthetic peptide added with the prey lysate to GST-TRIB1 on beads; read-out is the co-isolated CEBPA; both purified.

Results are given in words; binding and its absence hold for the method and conditions named. Binding seen in cells or lysates may run through a third protein. Binding can be weak; no strength is given.

Turning to HNF4A, P2 form (HNF4α7) (human), the binding entry in assay [1] is on record as “binds”.

B1: endogenous HNF4A (protein, UniProt P41235 1-474)
chain: MRLSKTLVDMDMADYSAALDPAYTTLEFENVQVLTMGNDTSPSEGTNLNAPNSLGVSALCAICGDRATGKHYGASSCDGCKGFFRRSVRKNHMYSCRFSRQCVVDKDKRNQCRYCRLKKCFRAGMKKEAVQNERDRISTRRSSYEDSSLPSINALLQAEVLSRQITSPVSGINGDIRAKKIASIADVCESMKEQLLVLVEWAKYIPAFCELPLDDQVALLRAHAGEHLLLGATKRSMVFKDVLLLGNDYIVPRHCPELAEMSRVSIRILDELVLPFQELQIDDNEYAYLKAIIFFDPDAKGLSDPGKIKRLRSQVQVSLEDYINDRQYDSRGRFGELLLLLPTLQSITWQMIEQIQFIKLFGMAKIDNLLQEMLLGGSPSDAPHAHHPLHPHLMQEHMGTNVIVANTMPTHLSNGQMCEWPRPRGQAATPETPQPSPPGGSGSEPYKLLPGAVATIVKPLSAIPQPTITKQEVI
As to B1, the binding result in assay [2] and in assay [3] was “binds” each time.

For the molecule SEICEDENSIDISAYIDPAAFND (biotin on the N-terminus) [CEBPA derived peptide], in assay [4], the binding result is on record as “binds”.
